Experimental data: PubChem BioAssay AID1259308 (NCATS, 2017)
Shown is an unselected part of about 59,000 reagents. Of all reagents, about 1,510 (2.6%) are marked active. 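Calls use total luciferase alone and ignore viability, so some active siRNAs may act by altering cell number.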 Reagents against one gene are numbered here. Not all columns of the deposit are shown. Reagent sequences are not shown.

- Test: 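Knock-downs that increase output of a recombinant reporter protein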 (primary screen)
- Cells: human HEK293 embryonic kidney cells stably expressing firefly luciferase (HEK-CMV-Luc2-Hygro)
- Reagents: single siRNA against human genes, 0.8 pmol siRNA per well
- Time to read-out: 72 h
- Detection: 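Reporter luminescence and viable-cell signal on separate replicate plates, given as percent of non-targeting control and median/MAD z-scores, plus per-cell luciferase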
- Reading the numbers: total luciferase, z-score and total luciferase, % of control: higher = more reporter protein produced
- Call rule: 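Active when the median/MAD z-score for overall luciferase is greater than 3; a gene was taken forward for validation with new siRNAs if at least two of its three siRNAs passed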
- Calls: active = raised luciferase; inactive = no rise

LYL1 (LYL1 basic helix-loop-helix family member) #1
- total luciferase, z-score: -1.77
- total luciferase, % of control: 46.7
- Outcome: inactive

LYL1 (LYL1 basic helix-loop-helix family member) #2
- total luciferase, z-score: -1.46
- total luciferase, % of control: 52.8
- Outcome: inactive

LYL1 (LYL1 basic helix-loop-helix family member) #3
- total luciferase, z-score: -1.08
- total luciferase, % of control: 60.3
- Outcome: inactive

TSGA13 (testis specific 13) #1
- total luciferase, z-score: -1.28
- total luciferase, % of control: 56.5
- Outcome: inactive

TSGA13 (testis specific 13) #2
- total luciferase, z-score: 2.29
- total luciferase, % of control: 127
- Outcome: inactive

TSGA13 (testis specific 13) #3
- total luciferase, z-score: 2.71
- total luciferase, % of control: 136
- Outcome: inactive

MCHR1 (melanin concentrating hormone receptor 1) #1
- total luciferase, z-score: 0.96
- total luciferase, % of control: 101
- Outcome: inactive

MCHR1 (melanin concentrating hormone receptor 1) #2
- total luciferase, z-score: 0.37
- total luciferase, % of control: 89.2
- Outcome: inactive

MCHR1 (melanin concentrating hormone receptor 1) #3
- total luciferase, z-score: -0.683
- total luciferase, % of control: 68.3
- Outcome: inactive

BCAN (brevican) #1
- total luciferase, z-score: -0.501
- total luciferase, % of control: 71.9
- Outcome: inactive

BCAN (brevican) #2
- total luciferase, z-score: 2.12
- total luciferase, % of control: 124
- Outcome: inactive

BCAN (brevican) #3
- total luciferase, z-score: 0.722
- total luciferase, % of control: 96.3
- Outcome: inactive
